Experimental data taken from article PMC9626947.
No constants are given. Whether binding was seen depends on the method and setting. Binding seen in cells or lysates may run through a third protein. Some results given as binding are weak or reduced against the parent protein; the word gives no strength. Sequences can lack the tags named with a protein.

The chains behind the UniProt entries cited, without tags or fusion partners. Where a name states a change or a piece, a line headed by the entry shows the natural chain unless it says otherwise.
UniProt P21279: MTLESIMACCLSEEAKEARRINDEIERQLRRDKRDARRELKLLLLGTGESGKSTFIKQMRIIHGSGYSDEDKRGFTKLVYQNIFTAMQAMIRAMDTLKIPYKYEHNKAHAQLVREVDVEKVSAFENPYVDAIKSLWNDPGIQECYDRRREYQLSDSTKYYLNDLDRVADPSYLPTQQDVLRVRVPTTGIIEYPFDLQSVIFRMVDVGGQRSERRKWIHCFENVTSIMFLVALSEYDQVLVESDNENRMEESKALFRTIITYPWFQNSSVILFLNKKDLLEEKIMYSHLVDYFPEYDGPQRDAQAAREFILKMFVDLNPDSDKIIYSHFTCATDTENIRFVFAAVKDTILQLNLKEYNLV

What was measured:
[1] = target: T1, FLAG-PLCβ-3 (UniProt Q01970); assay: co-IP; FLAG-PLCβ-3 immunoprecipitated with anti-FLAG M2 affinity gel from lysates of co-transfected HEK 293 q/11 K/O cells; cells untreated or treated with 1 μM YM-254890 overnight; lysis buffer C with 1 mM DTT, 2 h at 4 °C; immunoblot for αq
T1 sequence: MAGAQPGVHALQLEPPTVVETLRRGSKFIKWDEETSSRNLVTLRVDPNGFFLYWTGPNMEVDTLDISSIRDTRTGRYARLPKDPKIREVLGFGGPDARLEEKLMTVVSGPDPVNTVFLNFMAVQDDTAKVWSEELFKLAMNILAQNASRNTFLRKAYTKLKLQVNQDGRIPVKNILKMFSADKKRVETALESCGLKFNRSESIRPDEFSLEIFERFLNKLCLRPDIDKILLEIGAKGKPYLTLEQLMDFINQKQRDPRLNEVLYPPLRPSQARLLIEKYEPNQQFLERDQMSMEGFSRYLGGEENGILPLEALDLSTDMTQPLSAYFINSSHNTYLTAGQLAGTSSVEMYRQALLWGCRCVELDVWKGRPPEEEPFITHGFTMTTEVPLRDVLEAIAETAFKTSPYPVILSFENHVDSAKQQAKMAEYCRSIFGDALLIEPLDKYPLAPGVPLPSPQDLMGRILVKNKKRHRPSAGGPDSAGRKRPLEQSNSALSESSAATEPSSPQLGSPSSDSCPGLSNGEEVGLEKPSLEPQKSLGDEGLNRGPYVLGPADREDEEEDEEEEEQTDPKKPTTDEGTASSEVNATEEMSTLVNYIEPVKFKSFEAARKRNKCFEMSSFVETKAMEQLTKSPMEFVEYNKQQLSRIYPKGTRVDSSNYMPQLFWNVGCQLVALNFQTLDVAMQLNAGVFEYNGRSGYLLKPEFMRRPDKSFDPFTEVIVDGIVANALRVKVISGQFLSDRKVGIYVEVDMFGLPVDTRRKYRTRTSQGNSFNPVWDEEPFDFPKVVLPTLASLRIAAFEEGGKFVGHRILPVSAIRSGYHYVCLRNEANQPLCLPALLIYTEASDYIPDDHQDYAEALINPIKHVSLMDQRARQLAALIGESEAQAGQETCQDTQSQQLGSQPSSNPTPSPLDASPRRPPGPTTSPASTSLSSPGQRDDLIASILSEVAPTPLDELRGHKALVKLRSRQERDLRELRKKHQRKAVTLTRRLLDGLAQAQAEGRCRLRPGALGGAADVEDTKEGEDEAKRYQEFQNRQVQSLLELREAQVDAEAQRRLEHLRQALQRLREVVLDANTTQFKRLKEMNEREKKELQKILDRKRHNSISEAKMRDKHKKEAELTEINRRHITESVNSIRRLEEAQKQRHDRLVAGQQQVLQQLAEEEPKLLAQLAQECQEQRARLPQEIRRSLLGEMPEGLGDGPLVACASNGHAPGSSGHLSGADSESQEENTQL

[2] = target: T2, GST-RGS2 (UniProt P41220); assay: pull-down; 8 μg of purified GST fusion protein prebound to GSH Sepharose beads, incubated 1 h at 4 °C with lysates of HEK 293 q/11 K/O cells transfected with αq constructs; cells treated with DMSO or 1 μM YM-254890 overnight; 20 mM Tris-HCl pH 7.4, 1 mM EDTA, 1 mM DTT, 5 mM MgCl2, 0.7% Triton X-100; immunoblot for αq; only the target purified
T2 sequence: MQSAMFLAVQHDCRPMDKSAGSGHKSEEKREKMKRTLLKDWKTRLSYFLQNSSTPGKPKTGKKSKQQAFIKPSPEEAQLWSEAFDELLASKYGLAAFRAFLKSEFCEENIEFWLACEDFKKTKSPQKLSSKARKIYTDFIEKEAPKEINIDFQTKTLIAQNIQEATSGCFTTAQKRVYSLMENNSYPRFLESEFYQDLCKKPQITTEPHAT

- binding [1]: binds
- binding [2]: binds
Substance: HA-tagged αqQ209L (from UniProt P21279 1-359)
